PubChem BioAssay AID1259308 – NCATS | 2017

- Test: 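Candidate targets for better recombinant protein yield in mammalian cells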 (primary screen)
- Cells: human HEK293 embryonic kidney cells stably expressing firefly luciferase (HEK-CMV-Luc2-Hygro)
- Reagents: single siRNA against human genes, 0.8 pmol siRNA per well
- Duration: 72 h
- Measured: 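Reporter luminescence and viable-cell signal on separate replicate plates, given as percent of non-targeting control and median/MAD z-scores, plus per-cell luciferase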
- Scale: total luciferase, z-score: higher = more reporter protein produced
- Active means: 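Active when the median/MAD z-score for overall luciferase is greater than 3; a gene was taken forward for validation with new siRNAs if at least two of its three siRNAs passed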
- Meaning of the calls: active = raised luciferase; inactive = no rise
The deposit covers about 59,000 reagents; shown is a random part of them. Of all reagents, about 1,510 (2.6%) got an active call. 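Calls use total luciferase alone and ignore viability, so some active siRNAs may act by altering cell number.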 A number with no mark means an inactive call. Reagents against one gene are numbered here. Further read-outs or replicates are left out here.

total luciferase, z-score, by gene and reagent
RCBTB2: #1 0.0232; #2 -0.573; #3 0.21
APLP2: #1 -0.817; #2 1.73; #3 0.341
IKZF4: #1 0.683; #2 -0.379; #3 3.42 (active)
R3HDM4: #1 0.118; #2 -0.0905; #3 -0.126
YWHAE: #1 -1.7; #2 0.649; #3 -0.0927; #4 -1.33; #5 0.0195; #6 0.61
HTR1E: #1 0.396; #2 -0.27; #3 -0.234
TBC1D29P: #1 -0.977; #2 0.128; #3 -0.551

Records listed so far whose target name begins with R or r (6):
total luciferase, z-score, by gene and reagent
RCBTB2: #1 0.0232; #2 -0.573; #3 0.21
R3HDM4: #1 0.118; #2 -0.0905; #3 -0.126
